{"source": "patent US20060057230A1", "about": "“Tea polyphenols bioavailability enhancement method” (priority 2004, published 2006)", "experiment": "Plasma free catechin pharmacokinetics after oral Polyphenon E, fasting/fed cross-over", "format": "in vivo, human", "experimental": "Study Design. […] Breakfast consisted of one or two 4-oz muffins.\nSample Collection and Processing. […] The total volume of each urine sample was measured.\nTea Polyphenol Concentration Measurements.\nThis assay employed a gradient of two mobile phases. […] The flow rate was maintained at 1 ml/min.\nThe distribution of pharmacokinetic parameter data was normalized by logarithmic transformation prior to statistical analyses. The primary analyses were to determine whether the pharmacokinetics of tea catechins are different under fasting/fed states. Pharmacokinetic parameters such as AUC, Cmax, Tmax, half-life, CL/F, Vd/F, and total amount excreted over 24 hr between the fasting and fed conditions were compared by standard cross-over statistical analyses. The pkcross routine in Stata 8.0 (StataCorp 2003) was used. […] A p<0.05 was considered statistically significant. In secondary analysis, EGCG pharmacokinetic parameters such as CL/F, Vd/F, dose normalized AUC, and dose normalized Cmax were compared among different dose levels using one-way analysis of variance followed by post-hoc t-tests corrected for multiple comparisons. For the post-hoc t-test, a p<0.0167 was considered statistically significant.", "note": "At least one structure is not confirmed: it was looked up by name or label, or the drawing left a doubt."}
{"smiles": "O=C(O[C@@H]1Cc2c(O)cc(O)cc2O[C@@H]1c1cc(O)c(O)c(O)c1)c1cc(O)c(O)c(O)c1", "note": "[EGCG, epigallocatechin gallate]", "values": [{"measurement": "Vd/F of free EGCG", "setting": "oral Polyphenon E 200 mg (so in the source), Fasting", "value": "664.0 ± 223.5^2 L"}, {"measurement": "Vd/F of free EGCG", "setting": "oral Polyphenon E 200 mg (so in the source), Fed", "value": "2825.1 ± 2257.7", "unit": "L"}, {"measurement": "Vd/F of free EGCG", "setting": "oral Polyphenon E 400 mg, Fasting", "value": "912.4 ± 695.6^2 L"}, {"measurement": "Vd/F of free EGCG", "setting": "oral Polyphenon E 400 mg, Fed", "value": "2872.8 ± 2672.8", "unit": "L"}, {"measurement": "Vd/F of free EGCG", "setting": "oral Polyphenon E 800 mg, Fasting", "value": "946.6 ± 558.3^2 L"}, {"measurement": "Vd/F of free EGCG", "setting": "oral Polyphenon E 800 mg, Fed", "value": "3112.9 ± 2810.8", "unit": "L"}]}
